# Primary screen of a compound library

The chains behind the UniProt entries cited, without tags or fusion partners.
UniProt E9BF75, entry or part of it: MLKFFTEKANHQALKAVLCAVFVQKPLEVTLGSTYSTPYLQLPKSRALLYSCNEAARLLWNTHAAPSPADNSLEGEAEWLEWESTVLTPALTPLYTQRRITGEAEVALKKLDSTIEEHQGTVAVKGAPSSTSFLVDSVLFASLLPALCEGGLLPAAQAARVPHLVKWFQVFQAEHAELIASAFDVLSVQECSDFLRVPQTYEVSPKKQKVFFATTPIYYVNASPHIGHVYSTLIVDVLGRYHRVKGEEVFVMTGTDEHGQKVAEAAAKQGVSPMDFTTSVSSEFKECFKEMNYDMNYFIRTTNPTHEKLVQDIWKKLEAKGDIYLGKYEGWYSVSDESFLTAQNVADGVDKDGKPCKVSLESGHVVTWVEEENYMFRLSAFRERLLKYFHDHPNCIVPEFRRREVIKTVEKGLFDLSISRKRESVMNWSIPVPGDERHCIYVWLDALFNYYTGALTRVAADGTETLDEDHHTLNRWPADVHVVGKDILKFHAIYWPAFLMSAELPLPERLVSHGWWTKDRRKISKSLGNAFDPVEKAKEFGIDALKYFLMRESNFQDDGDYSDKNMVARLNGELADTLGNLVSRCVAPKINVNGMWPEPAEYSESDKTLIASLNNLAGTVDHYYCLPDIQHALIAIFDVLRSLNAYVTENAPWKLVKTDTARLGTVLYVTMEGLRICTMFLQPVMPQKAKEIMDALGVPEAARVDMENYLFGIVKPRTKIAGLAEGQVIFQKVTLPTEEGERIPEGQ

Source: ChEMBL document CHEMBL3988442, “University of Dundee, Small-Polar-MMV Screening Library” (2021).

A: 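Assay on Mycobacterium tuberculosis, filed only as a heat shock assay from Cornell; the read-out is not stated. The concentration is filed as 10 mM, unlikely as a test dose, so the dose is not known. Direction is inferred from retests: higher values go with stronger inhibition. Of about 69,000 compounds tested this way, about 930 (1.4%) reached 50% or more in at least one test.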
B: 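Primary screen of methionyl-tRNA synthetase; the read-out is not stated. Target: Methionyl-tRNA synthetase (putative), Leishmania donovani (UniProt E9BF75). The test concentration is not given. The values are filed as inhibition. About 68,000 compounds were tested under these conditions; 0.035% (about 24) showed 50% or more at least once.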
C: 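Whole-cell assay for inhibitors of Mycobacterium tuberculosis growth, labelled Cornell in the record; the read-out is not stated. The concentration is filed as 10 mM, unlikely as a test dose, so the dose is not known. Higher means stronger inhibition (inferred from two other growth screens of the library). About 53,000 compounds were tested under these conditions; 1.7% (about 900) showed 50% or more at least once.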

Results are percentages, as filed.
How 0% and 100% were set is not recorded. Most values in the screen are low, and negative values occur.
Compounds were drawn at random from those tested, without regard to their results.

- CC(NC(=O)N(C)Cc1ccsc1)c1ccc2c(c1)NC(=O)CO2 (centres undefined) : A: 7.085%; B: 15.31%
- CC(C)c1nnc(CN2CCCc3ccc(S(N)(=O)=O)cc32)o1 : A: -8.202%; B: 10.89%; C: -1.575%
- CNCC(=O)N1CCCC(c2cccc(Nc3nc(C)cc(C)n3)n2)C1 (centres undefined) : A: -26.96%; B: 6.507%; C: -31.95%
- O=C(O)C(F)(F)F.c1ccc(CN2CCC3(CC2)CC(Nc2nccs2)CO3)nc1 (centres undefined) : A: -4.17%; C: 10.27%
- CSCC(=O)N1CCCC(CO)(CC2CC2)C1 (centres undefined) : A: -3.734%; B: 9.137%
- COC(=O)c1cc(OCC2CCC2)cc(C(=O)N[C@@H]2CNCC[C@H]2O)c1 : A: -2.238%; B: 5.419%; C: -12.06%
- c1cnc(N2CCCC3(COCCN(c4nncs4)C3)C2)cn1 (centres undefined) : A: -42.05%; B: 6.536%; C: 15.13%
- COCCNC(=O)c1c(-n2cnnn2)sc2c1CCCC2 : A: 3.66%; B: 17.56%; C: 24.57%
- Cc1nc(C)n(C2CCCN(C(=O)CCn3ccnn3)C2)n1 (centres undefined) : A: -16.71%; B: 13.9%; C: -7.947%
- CCc1ccc(CN2CC[C@@H]3CN(S(C)(=O)=O)CCO[C@@H]3C2)o1 : B: 1.038%
- [H][C@]12CC[C@]([H])(CN(CC(=O)N(C)C)C1)N(C(=O)CCn1cc(C)cn1)C2 : A: 6.428%
- CN1CCCC(N(C)C(=O)c2ccc(NC(=O)c3cc[nH]n3)cc2)C1 (centres undefined) : A: -4.972%; B: 11.34%
- [H][C@@]12COC[C@]1(c1nnc(C3CC3)o1)CN(C(=O)C(C)(C)C)C2 : A: -9.807%; C: 23.12%
- Cn1cnnc1CN1CCC2(CCC(=O)N(Cc3ccccc3)C2)CC1 : A: -1.409%; B: 19.37%; C: 14.62%
- CC(CC(=O)NCCNS(C)(=O)=O)C1CCCCC1 (centres undefined) : A: 16.72%; B: 13.28%; C: 1.863%
- CCS(=O)(=O)N1CCc2c(COCc3ccncc3)cncc2C1 : A: -3.061%; B: 7.235%; C: -22.14%
- Nc1nc2c(c(NCc3cnc4c(c3)CCC4)n1)CCNC2 : A: 1.711%; B: 17.48%; C: -2.42%
- CCC[C@H]1CN(CCS(C)(=O)=O)C[C@@H]1NC(=O)c1ccn(C)n1 : A: -26.17%; B: 5.344%; C: 30.4%
- CNC(=O)CN1CCOCC2(CCCN(CCc3ccccc3)C2)C1 (centres undefined) : B: 6.731%
- O=C1C(n2nnc(-c3cccs3)n2)CCN1CC(F)(F)F (centres undefined) : A: 29.05%; B: 14.63%; C: 21.02%
- CCOCc1nc2c(c(NC(COC)c3ccccn3)n1)CCNCC2 (centres undefined) : A: 0.7117%; B: 14.66%; C: 28.17%
- CCOc1ccccc1C(CC(=O)Nc1ccccc1F)NC(C)=O (centres undefined) : A: -17.21%; B: 16.33%
- COc1ccncc1NC(=O)C1(c2ccc(F)cc2)CCC1 : A: -24.27%; B: 17.69%; C: 21.99%
- Cc1cc(O)nc(C2CCN(C(=O)CO)CC2)n1 : A: -0.8906%; B: 6.854%; C: -24.62%
- O=C(O)C(F)(F)F.[H][C@@]12C[C@H](C)O[C@]1([H])CCN(S(=O)(=O)c1c(C)nn(C)c1C)C2 : A: 4.759%; C: 0.4398%
- CN(Cc1cc(C(C)(C)C)n[nH]1)C(=O)c1cn2ccsc2n1 : A: 6.082%; B: 17.76%; C: -28.88%
- CN1CCN(C(=O)C2(S(C)(=O)=O)CCCC2)Cc2ccccc21 : A: -151.7%; B: 8.761%
- O=C1N(Cc2ccc(F)c(F)c2)CCCC1(O)CNCc1ccccn1 (centres undefined) : A: 8.293%; B: 19.89%; C: 33.61%
- O=C(O)C(F)(F)F.O=C(O)C(F)(F)F.[H][C@@]12CCCO[C@]1([H])[C@H](NC(=O)C1CC1)CN2Cc1cccc(C)n1 : A: 13.01%; C: 14.5%
- Cc1ccc(F)c(NCC(C)(C)S(C)(=O)=O)c1 : A: 19.53%; B: 12.1%; C: 18.2%
- O=C(NCCn1ccnc1)N1CCCC1c1cccs1 (centres undefined) : A: 11.63%; B: 5.736%
- CN(Cc1cc2cc(F)ccc2[nH]1)C(=O)C1CC(=O)N(C2CC2)C1 (centres undefined) : A: 2.685%; B: 14.83%; C: 52.25%
- O=S(=O)(NCCc1nnc2ccccn12)c1cccnc1 : A: -25.93%; B: 5.236%; C: -51.76%
- CC(NC(=O)N1CCCN(Cc2cccs2)CC1)c1cccnc1 (centres undefined) : A: -2.536%; B: 14.29%
- [H][C@]12CC[C@]([H])(CN(Cc3ccc(F)cc3)C1)N(Cc1cccc(O)c1)C2 : A: 4.19%; C: 13.2%
- Cc1nn(C)c(N(C)C)c1CNCc1cccc(CN(C)C)c1 : B: -4.982%
- CC(=O)N(Cc1noc(C)n1)C1CCN(CCOc2ccccc2)C1 (centres undefined) : A: 22.37%; B: 8.711%; C: -1.975%
- COc1ccccc1CN(Cc1cccnc1)CC1CCCO1 (centres undefined) : B: 11.53%

The last 4 entries again:

{"smiles": "[H][C@]12CC[C@]([H])(CN(Cc3ccc(F)cc3)C1)N(Cc1cccc(O)c1)C2", "A": 4.19, "C": 13.2}
{"smiles": "Cc1nn(C)c(N(C)C)c1CNCc1cccc(CN(C)C)c1", "B": -4.982}
{"smiles": "CC(=O)N(Cc1noc(C)n1)C1CCN(CCOc2ccccc2)C1", "stereo": "centres undefined", "A": 22.37, "B": 8.711, "C": -1.975}
{"smiles": "COc1ccccc1CN(Cc1cccnc1)CC1CCCO1", "stereo": "centres undefined", "B": 11.53}